## Assay results

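Uptake of anthrax lethal toxin into cultured cells, read by FRET (460/530 nm ratio) and reported from the 460 nm channel; the cell line is not named here.
Each compound was tested as a concentration series from about 0.0005 to 40 µM.
The number is the fitted AC50 of the 460 nm signal alone; lower values mean a more potent effect. A falling signal goes with compounds filed as inhibitors or cytotoxic, a rising one with activators or fluorescent compounds (inferred from the filed classes).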

Values are in µM.
Common to all entries: measured here: 460 nm channel.
This is a side read-out of the assay, for part of the compounds, not drawn at random.
Potencies fitted to partial, single-point or poorly fitting curves are rough.
The first word of each remark tells which way the curve ran; it can be opposite to the aim of the assay.

| compound | AC50 (µM) | curve |
|---|---|---|
| `COc1ccccc1N1CCN(CC(O)c2ccc3cc[nH]c3c2)CC1` (stereo not drawn) | 12.59 | falling, partial curve |
| `COc1ccc(OC)c(C(=O)c2coc3ccc(OC)cc23)c1` | 15.85 | falling, partial curve |
| `Cn1c(NC(=O)c2cc(-c3ccc4c(c3)OCO4)nc3ccccc23)cc(=O)n(C)c1=O` | 5.012 | rising, single point |
| `Cn1c(=N)c(S(=O)(=O)c2ccccc2)cc2c(=O)n3ccccc3nc21` | 0.2512 | rising, full curve |
| `COc1ccc2c(C)cc(SCC#N)nc2c1` | 1.259 | rising, partial curve |
| `COC(=O)COc1ccc(S(=O)(=O)Nc2ccc(C(N)=O)cc2)cc1Cl` | 10 | rising, partial curve |
| `N#Cc1ccc(CN2CC[C@@]3(CCCNC3)C2)cc1` | 1.585 | falling, partial curve |
| `COc1ccc(-c2nc3cnc(Oc4ccccc4)nc3n(Cc3cccs3)c2=O)cc1` | 12.59 | rising, partial curve |
| `COCCNC(=O)c1c(N)n(CCCn2ccnc2)c2nc3ccccc3nc12` | 0.003981 | falling, full curve, poor fit |
| `CC1(C)Cc2c(c(N3CCCC3)nc3sc4c(N5CCN(CCO)CC5)ncnc4c23)CO1` | 10 | falling, partial curve |
| `Nc1ccc2cc3ccccc3cc2c1` | 6.31 | rising, full curve, poor fit |
| `O=C(CN1CCC(O)(c2ccc3c(c2)OCO3)CC1)OC1CCCCC1` | 0.07943 | rising, full curve, poor fit |
| `FC(F)(F)c1ccccc1-c1cc(NCc2cccnc2)ncn1` | 5.012 | falling, single point |
| `Cc1ccc(NC(=O)c2cc(-c3cccc(O)c3)on2)cc1C` | 1.259 | falling, full curve |
| `O=c1c(-c2cccc(Cl)c2)nc2cncnc2n1-c1ccccc1` | 10 | rising, partial curve |
| `CCn1cc(C(=O)Nc2ccc(-n3cnnn3)c(OC)c2)c(=O)c2ccc(C)nc21` | 5.012 | rising, single point |
| `CC(O)/C=C/c1cccc[n+]1C` (stereo not drawn) | 0.007943 | rising, full curve, poor fit |
| `CCOc1ccc(N(CC(=O)N2CCN(c3ccccc3)CC2)S(=O)(=O)c2c(C)noc2C)cc1` | 12.59 | falling, partial curve |
| `COC(=O)c1cc(Br)c(=O)n(Cc2ccc(C(=O)O)cc2)c1` | 19.95 | falling, partial curve, poor fit |
| `O=C(O)C1C2C=CC3(CN(Cc4ccccn4)C(=O)C13)O2` (stereo not drawn) | 7.943 | rising, partial curve |
| `Cc1nn(CC(=O)Nc2ccc(C(=O)N3CCCCC3)cc2)c(=O)c2ccccc12` | 0.1259 | falling, full curve, poor fit |
| `O=c1c(-c2ccc(F)cc2)nc2cnc(N3CCNCC3)nc2n1-c1ccccc1` | 2.512 | rising, full curve |
| `CC(C)CN(CC(C)C)c1nc(N)c(C#N)c(CC#N)c1C#N` | 1.995 | falling, full curve, poor fit |
| `O=C(CCN1C(=O)C2CC=C(Cl)CC2C1=O)N1CCCCC1` (stereo not drawn) | 5.012 | rising, single point |
| `COc1ccc2c(c1)CCc1c(C(=O)N3CCCc4ccccc43)noc1-2` | 31.62 | falling, partial curve |
| `CN(C)C(=O)CCc1nc(-c2ccc(C(C)(C)C)cc2)no1` | 0.01 | falling, full curve, poor fit |
| `N=c1n(CCOc2ccccc2)c2ccccc2n1CCN1CCOCC1` | 25.12 | falling, single point |
| `CCCn1c(N2CCN(CC(=O)c3c[nH]c4ccccc34)CC2)nc2c1c(=O)[nH]c(=O)n2C` | 5.012 | falling, single point |
| `Cc1nn(C)c(Cl)c1S(=O)(=O)N[C@@H](c1ccccc1)[C@]1(C)C[C@H]1[C@@H](C)C(=O)Nc1ccc2ccccc2c1` | 10 | falling, single point |
| `CCOc1ccccc1N(C(=O)c1snc(C(N)=O)c1N)C(C(=O)NCCC(C)C)c1ccco1` (stereo not drawn) | 15.85 | rising, partial curve |
| `O=c1ccsn1Cc1ccccc1` | 1.585 | falling, full curve |
| `CC1=C(C(=O)N2CCOCC2)C(c2ccccc2F)C2=C(CCCC2=O)N1` (stereo not drawn) | 2.512 | rising, partial curve |
| `CCCCc1nc2ccccc2c(=O)n1NC(=O)c1c(O)c2cccc3c2n(c1=O)CCC3` | 12.59 | rising, partial curve |
| `Nc1nc2n(n1)C(c1ccco1)CC(c1ccc(Cl)c(Cl)c1)N2` (stereo not drawn) | 7.943 | falling, partial curve, poor fit |
| `CCC(C)(C)n1nnnc1C(c1cc2ccc(OC)cc2[nH]c1=O)N1CCc2ccccc2C1` (stereo not drawn) | 10 | rising, partial curve |
| `c1ccc(NNc2ccccc2)cc1` | 12.59 | falling, single point |
| `O=C(Nc1nc(-c2ccccn2)cs1)c1ccc(Cl)s1` | 10 | falling, partial curve |
| `Cc1ccc2cc(C#N)c(N3CCCN(S(=O)(=O)c4ccccc4)CC3)nc2c1` | 1.259 | rising, partial curve |
| `O=C(c1cccc(S(=O)(=O)N2CCOCC2)c1)N1CCCCCC1` | 0.00631 | falling, full curve, poor fit |
| `O=C(CSc1nnc(Cc2cccs2)n1-c1ccccc1)NC1CCCCC1` | 3.981 | falling, full curve |
| `COc1cc2c(cc1O)C(CCc1ccc(Cl)cc1)N(C)CC2` (stereo not drawn) | 15.85 | falling, single point |
| `COC(=O)N1[C@H](C)C=C[C@]1(Cc1ccccc1)C(=O)NCCCNc1ncc(C(F)(F)F)cc1Cl` | 31.62 | falling, single point |
| `CCCCOc1cc(C(=O)OCCN(CC)CC)ccc1N` | 0.2512 | falling, single point |
| `Cc1[nH]nc2c1C(c1ccc(F)cc1)C1=C(CC(C)(C)CC1=O)N2` (stereo not drawn) | 5.012 | rising, partial curve |
| `CCCCCS(=O)(=O)CCCCCCCCCCn1c(-c2ccc(O)cc2)c(C)c2cc(O)ccc21` | 7.943 | falling, partial curve |
| `O=C(CCN1CCc2ccccc2C1)c1ccc2c(c1)OCCO2` | 3.162 | falling, partial curve |
| `O=Nc1ccc(Nc2ccccc2)cc1` | 15.85 | falling, partial curve, poor fit |
| `CN1C[C@H](CO)C=C2c3cccc4[nH]cc(c34)C[C@H]21` | 25.12 | falling, single point |
| `Cc1cccc(OCC(=O)Nc2ccc(N3CCN(S(C)(=O)=O)CC3)cc2)c1` | 5.012 | falling, single point |
| `CCc1ccc2c(-c3cccc(Cl)c3)nc(=O)n(CC)c2n1` | 25.12 | falling, partial curve |
| `CC1(C)N=C(N)N=C(N)N1c1cccc(OCc2cccc([N+](=O)[O-])c2)c1` | 0.5012 | falling, single point |
| `CCCCOc1ccc(C2C3CN(C(=O)OCC)CC=C3C(C#N)=C(N)C2(C#N)C#N)cc1OC` (stereo not drawn) | 10 | rising, single point |
| `c1cncc(-c2nc(NCc3ccco3)c3ccccc3n2)c1` | 5.012 | falling, partial curve |
| `O=C(Nc1cccc(NC(=O)N2CCN(c3ccccc3)CC2)c1)N1CCN(c2ccccc2)CC1` | 7.943 | falling, partial curve, poor fit |
| `Nc1ccc(O)c(-c2nc3ccccc3s2)c1` | 5.012 | falling, partial curve |

5 of the entries, repeated:

For CCn1cc(C(=O)Nc2ccc(-n3cnnn3)c(OC)c2)c(=O)c2ccc(C)nc21 the result was AC50 5.012 µM (rising, single point).
For Nc1ccc2cc3ccccc3cc2c1 the result was AC50 6.31 µM (rising, full curve, poor fit).
For COC(=O)c1cc(Br)c(=O)n(Cc2ccc(C(=O)O)cc2)c1 the result was AC50 19.95 µM (falling, partial curve, poor fit).
For Cc1nn(CC(=O)Nc2ccc(C(=O)N3CCCCC3)cc2)c(=O)c2ccccc12 the result was AC50 0.1259 µM (falling, full curve, poor fit).
For O=c1ccsn1Cc1ccccc1 the result was AC50 1.585 µM (falling, full curve).

Data taken from PubChem BioAssay AID912, deposited by NCATS (2007).